Laboratory results: PubChem BioAssay AID1224830 (NIAID, 2016)
Purpose: 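Host factors that control LPS-induced TNF expression in human macrophages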 (primary screen). Cell system: human THP-1 monocytic leukaemia cells, TNF dual-luciferase reporter clone, PMA-differentiated to macrophage-like cells. Reagent: siRNA pool against human genes, 50 nM. Time to read-out: LPS for 4 h, given about 3 days after siRNA transfection. Treatment: bacterial LPS (TLR4 ligand), 10 ng/ml. Measured: 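Ratio of firefly to renilla light, scaled to the plate median and expressed as a robust z-score per replicate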. Direction: TNF reporter robust z-score: higher = stronger TNF reporter response to LPS. Hit rule: 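a well is active when its z-score exceeds 2.8 or falls below -1.5; control wells carry no call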.
The deposit covers about 18,000 reagents; shown is a part drawn at random. About 2,900 of them (16%) count as active. 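Calls are made per well; low scores hint the gene aids the LPS response, high scores that it dampens it.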 Repeated entries: four replicate wells of each siRNA pool.

With knock-down of DTWD1 (DTW motif tRNA-uridine aminocarboxypropyltransferase 1) the results were TNF reporter robust z-score 0.33; inactive.
DTWD1 (DTW motif tRNA-uridine aminocarboxypropyltransferase 1) scored TNF reporter robust z-score 0.48; inactive.
DTWD1 (DTW motif tRNA-uridine aminocarboxypropyltransferase 1) gave TNF reporter robust z-score 0.25; inactive.
For DTWD1 (DTW motif tRNA-uridine aminocarboxypropyltransferase 1), the entry reads TNF reporter robust z-score -0.01; inactive.
FLOT1 (flotillin 1) scored TNF reporter robust z-score -0.41; inactive.
Against FLOT1 (flotillin 1), the entry reads TNF reporter robust z-score 0.7; inactive.
Depletion of FLOT1 (flotillin 1) resulted in: TNF reporter robust z-score 0.17; inactive.
For FLOT1 (flotillin 1), the entry reads TNF reporter robust z-score -0.46; inactive.
AIG1 (androgen induced 1) showed TNF reporter robust z-score 0.94; inactive.
For AIG1 (androgen induced 1), the entry reads TNF reporter robust z-score 2.69; inactive.
AIG1 (androgen induced 1) showed TNF reporter robust z-score 0.74; inactive.
Knock-down of AIG1 (androgen induced 1) came out at: TNF reporter robust z-score 0.54; inactive.
After knock-down of CCT2 (chaperonin containing TCP1 subunit 2), the record shows TNF reporter robust z-score -1.53; active.
Depletion of CCT2 (chaperonin containing TCP1 subunit 2) resulted in: TNF reporter robust z-score -1.25; inactive.
CCT2 (chaperonin containing TCP1 subunit 2) showed TNF reporter robust z-score -1.18; inactive.
ULBP2 (UL16 binding protein 2) scored TNF reporter robust z-score -0.96; inactive.
Depletion of ULBP2 (UL16 binding protein 2) gave: TNF reporter robust z-score 0.53; inactive.
ULBP2 (UL16 binding protein 2) gave TNF reporter robust z-score 1.5; inactive.
After knock-down of ULBP2 (UL16 binding protein 2), the record shows TNF reporter robust z-score 1.91; inactive.
GPIHBP1 showed TNF reporter robust z-score -0.92; inactive.
After knock-down of GPIHBP1, the record shows TNF reporter robust z-score -0.87; inactive.
Against GPIHBP1 the deposit lists TNF reporter robust z-score -1.24; inactive.
Depletion of GPIHBP1 gave: TNF reporter robust z-score -0.77; inactive.
With knock-down of ARHGAP17 (Rho GTPase activating protein 17), the screen gave TNF reporter robust z-score -0.83; inactive.
ARHGAP17 (Rho GTPase activating protein 17) gave TNF reporter robust z-score -0.1; inactive.
For ARHGAP17 (Rho GTPase activating protein 17), the entry reads TNF reporter robust z-score -0.5; inactive.
After knock-down of HELT (helt bHLH transcription factor), the screen gave TNF reporter robust z-score -0.98; inactive.
HELT (helt bHLH transcription factor) gave TNF reporter robust z-score -1.22; inactive.
For HELT (helt bHLH transcription factor) the deposit lists TNF reporter robust z-score -0.75; inactive.
Silencing of HELT (helt bHLH transcription factor) came out at: TNF reporter robust z-score -0.95; inactive.
Against RETSAT (retinol saturase) the deposit lists TNF reporter robust z-score -1.79; active.
With knock-down of RETSAT (retinol saturase), the screen gave TNF reporter robust z-score -1.09; inactive.
With knock-down of RETSAT (retinol saturase), the record shows TNF reporter robust z-score -1.23; inactive.
Against RETSAT (retinol saturase), the values are TNF reporter robust z-score -1.06; inactive.
Knock-down of RRAS (RAS related) resulted in: TNF reporter robust z-score 0.38; inactive.
RRAS (RAS related) gave TNF reporter robust z-score 0.95; inactive.
With knock-down of RRAS (RAS related), the record shows TNF reporter robust z-score -0.12; inactive.
RRAS (RAS related) scored TNF reporter robust z-score -0.05; inactive.

The list goes on:
After knock-down of LRRC37A2 (leucine rich repeat containing 37 member A2) the results were TNF reporter robust z-score 1.76; inactive.
LRRC37A2 (leucine rich repeat containing 37 member A2) scored TNF reporter robust z-score 0.83; inactive.
LRRC37A2 (leucine rich repeat containing 37 member A2) scored TNF reporter robust z-score -0.13; inactive.
LRRC37A2 (leucine rich repeat containing 37 member A2) scored TNF reporter robust z-score -0.35; inactive.
Silencing of NADK (NAD kinase) resulted in: TNF reporter robust z-score -0.33; inactive.
Depletion of NADK (NAD kinase) gave: TNF reporter robust z-score 1.16; inactive.
Knock-down of NADK (NAD kinase) gave: TNF reporter robust z-score -0.76; inactive.
NADK (NAD kinase) scored TNF reporter robust z-score -0.02; inactive.
GFAP (glial fibrillary acidic protein) showed TNF reporter robust z-score -0.31; inactive.
Silencing of GFAP (glial fibrillary acidic protein) gave: TNF reporter robust z-score -0.26; inactive.
Depletion of GFAP (glial fibrillary acidic protein) gave: TNF reporter robust z-score -0.86; inactive.
GFAP (glial fibrillary acidic protein) showed TNF reporter robust z-score 0.29; inactive.
For TEX55 (testis expressed 55), the values are TNF reporter robust z-score -0.74; inactive.
For TEX55 (testis expressed 55), the entry reads TNF reporter robust z-score -0.3; inactive.
Silencing of TEX55 (testis expressed 55) gave: TNF reporter robust z-score -0.51; inactive.
Knock-down of TEX55 (testis expressed 55) gave: TNF reporter robust z-score -0.35; inactive.
POFUT2 (protein O-fucosyltransferase 2) scored TNF reporter robust z-score -0.88; inactive.
Against POFUT2 (protein O-fucosyltransferase 2) the deposit lists TNF reporter robust z-score 0.34; inactive.
Knock-down of POFUT2 (protein O-fucosyltransferase 2) came out at: TNF reporter robust z-score 0.35; inactive.
For POFUT2 (protein O-fucosyltransferase 2), the entry reads TNF reporter robust z-score -0.03; inactive.
AP1S3 (adaptor related protein complex 1 subunit sigma 3) scored TNF reporter robust z-score 0.84; inactive.
After knock-down of AP1S3 (adaptor related protein complex 1 subunit sigma 3), the screen gave TNF reporter robust z-score 1; inactive.
Depletion of AP1S3 (adaptor related protein complex 1 subunit sigma 3) gave: TNF reporter robust z-score 0.37; inactive.
For AP1S3 (adaptor related protein complex 1 subunit sigma 3) the deposit lists TNF reporter robust z-score 1.02; inactive.
